Results are given in words; binding and its absence hold for the method and conditions named. In cells and extracts the contact can be indirect. Some binding calls cover weakened binding; strength is not graded here.
Target: T1, GCM1 (human) (UniProt Q9NP62)
T1 sequence: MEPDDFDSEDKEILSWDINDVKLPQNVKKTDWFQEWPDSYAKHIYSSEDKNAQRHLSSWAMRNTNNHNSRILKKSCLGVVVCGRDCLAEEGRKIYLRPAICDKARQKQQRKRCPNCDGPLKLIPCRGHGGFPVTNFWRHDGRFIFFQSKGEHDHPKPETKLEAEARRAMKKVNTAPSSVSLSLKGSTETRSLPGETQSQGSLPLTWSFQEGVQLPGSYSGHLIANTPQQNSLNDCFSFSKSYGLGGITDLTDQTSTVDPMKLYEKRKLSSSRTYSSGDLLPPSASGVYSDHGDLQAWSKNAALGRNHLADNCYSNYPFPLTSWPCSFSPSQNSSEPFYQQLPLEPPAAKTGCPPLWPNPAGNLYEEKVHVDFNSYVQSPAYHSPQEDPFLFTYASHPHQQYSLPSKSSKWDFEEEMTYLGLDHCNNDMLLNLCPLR
Experiment: co-IP; Co-IP in EVTs and STs derived from hTSCs; which protein was precipitated is not told in the text shown

The chains behind the UniProt entries cited, without tags or fusion partners.
UniProt O60479: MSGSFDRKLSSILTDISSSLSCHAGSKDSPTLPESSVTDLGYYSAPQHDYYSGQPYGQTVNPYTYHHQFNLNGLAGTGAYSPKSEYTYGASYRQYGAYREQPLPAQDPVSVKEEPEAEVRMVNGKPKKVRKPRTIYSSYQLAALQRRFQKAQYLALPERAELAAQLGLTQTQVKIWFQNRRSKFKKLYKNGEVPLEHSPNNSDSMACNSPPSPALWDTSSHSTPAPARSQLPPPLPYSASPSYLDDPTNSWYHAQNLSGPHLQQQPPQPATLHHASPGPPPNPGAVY

**Q.** For DLX3 (from UniProt O60479 1-287), which binding is on record?
**A.** binds

From PMC10742386
